Assay results reported in PubChem BioAssay AID493014 (National Center for Advancing Translational Sciences (NCATS), 2011).
The list shows a part of the results. These are further read-outs of the screen, such as a control signal, another cell line or another target. No call is given for them. Most of these compounds were active or inconclusive in the main read-out, so they are no random draw. Words in brackets tell the shape of the fitted curve; partial curves, single points and poor fits give uncertain potencies.

Assay: qHTS Assay to Find Inhibitors of Chronic Active B-Cell Receptor Signaling
Details: ABC-DLBCL IkBa-CBG/CBR reporter, luminescence ratio (green luciferase fused to IkBa over red control in TMD8 lymphoma cells), 4 h
How it was run: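 Doxycycline induced both beetle luciferases in TMD8 lymphoma cells; IKK-driven degradation limits the IkappaBalpha-fused green signal, while red luminescence normalises for cell number and nonspecific effects. Compounds tested up to 46 uM, 4 hrs.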

[1] = measured here: CBR red luminescence, cell number
[2] = measured here: IkBa-CBG green luminescence

Row | Compound | AC50 [1] | AC50 [2]
1 | CCNS(=O)(=O)c1c(C)cc(N2CCCC2=O)cc1C | 32.6 µM [rising, single point] | 
2 | c1ccc(-c2ccc(OCCOCCn3cncn3)cc2)cc1 | 2.06 µM [rising, partial curve, poor fit] | 
3 | CC(C)CN(C(=O)c1cccc(S(=O)(=O)N2CCN(Cc3ccccc3)CC2)c1)C1CCS(=O)(=O)C1 (stereo not drawn) | 13 µM [falling, partial curve, poor fit] | 
4 | COc1cccc(N2CC(NC(=O)c3cc(Cl)ccc3OC)CC2=O)c1 (stereo not drawn) | 35.5 µM [falling, partial curve, poor fit] | 
5 | O=C1CCN(Cc2ccccc2)C(=O)N1c1ccccc1 | 0.282 µM [falling, partial curve, poor fit] | 
6 | CC(Cl)C(=O)Nc1ncc(C(F)(F)F)cc1Cl (stereo not drawn) | 6.51 µM [falling, single point] | 
7 | Cc1ccc(C(CC(=O)NCCCN(C)C)c2ccc(OC(C)C)cc2)cc1 (stereo not drawn) | 20 µM [falling, single point] | 
8 | Cc1cc(C)nc(N/N=C/c2ccccc2OCc2ccc([N+](=O)[O-])cc2)n1 | 2.06 µM [falling, partial curve] | 
9 | CN(C(=S)NC(=O)/C=C/c1ccc(F)cc1)C1CCCCC1 | 1.3 µM [rising, full curve] | 
10 | C/C(=N\Nc1ccc(Cl)c(C(=O)O)c1)c1cccs1 | 7.08 µM [falling, partial curve] | 
11 | Cc1ccc(-n2c(SCC(=O)NCc3ccco3)nc3c([nH]c4ccccc43)c2=O)cc1 | 2 µM [rising, full curve, poor fit] | 
12 | O=C(NCc1cccnc1)C(=O)Nc1ccc2c(c1)OCO2 | 28.2 µM [falling, single point] | 
13 | COc1ccccc1-c1nnc(NC(=O)Cc2ccccc2)o1 | 17.8 µM [falling, single point] | 
14 | Cn1c(O)c(N=NC(=S)Nc2ccccc2F)c2cc(S(=O)(=O)N3CCOCC3)ccc21 | 5.62 µM [rising, single point] | 3.98 µM [falling, full curve]
15 | N#Cc1ccc(CSc2nnc(Nc3ccccc3)s2)cc1 | 6.31 µM [rising, single point] | 
16 | C[C@H](CO)N1C[C@H](C)[C@@H](CN(C)S(=O)(=O)c2ccc(F)cc2)Oc2c(NC(=O)Nc3ccc(C(F)(F)F)cc3)cccc2C1=O | 23.1 µM [falling, partial curve, poor fit] | 

2 records picked at random from those above, as already listed:
Row | Compound | AC50 [1] | AC50 [2]
3 | CC(C)CN(C(=O)c1cccc(S(=O)(=O)N2CCN(Cc3ccccc3)CC2)c1)C1CCS(=O)(=O)C1 (stereo not drawn) | 13 µM [falling, partial curve, poor fit] | 
11 | Cc1ccc(-n2c(SCC(=O)NCc3ccco3)nc3c([nH]c4ccccc43)c2=O)cc1 | 2 µM [rising, full curve, poor fit] | 

Later entries:

Row | Compound | AC50 [1] | AC50 [2]
17 | O=C(Cc1ccc([N+](=O)[O-])cc1)N/N=C/c1ccccc1F | 11.2 µM [rising, partial curve] | 
18 | Cc1ccc(/C=C2\SC(=S)N(CCCC(=O)Nc3cc(C)on3)C2=O)cc1 | 3.16 µM [falling, full curve, poor fit] | 
19 | O=c1[nH]cnc2c1c(-c1ccccc1)cn2-c1ccc(F)cc1 | 18.4 µM [falling, single point] | 
20 | COc1ccccc1Nc1nc(N)nc(CN2CCc3ccccc3C2)n1 | 18.4 µM [rising, partial curve] | 18.4 µM [falling, single point]
21 | N#CC(C#N)=C1NC2(CCCC2)Cc2ccccc21 | 16.4 µM [rising, partial curve, poor fit] | 
22 | Cc1ccc(C(NC(=O)c2ccccc2)C(Cl)(Cl)Cl)cc1 (stereo not drawn) | 0.82 µM [falling, partial curve, poor fit] | 
23 | COc1ccc(NC(=O)Nc2cccc3c2O[C@H](CN(C)S(=O)(=O)c2c(C)noc2C)[C@@H](C)CN([C@H](C)CO)C3=O)cc1 | 14.6 µM [rising, partial curve] | 
24 | COCc1[nH]nc2c1C(c1cccc(OC)c1)C(C#N)=C(N)O2 (stereo not drawn) | 6.31 µM [falling, full curve, poor fit] | 
25 | CC(C)c1ccc(NC(=O)COC(=O)COc2ccccc2)cc1 | 29.1 µM [rising, partial curve, poor fit] | 
26 | CCc1cc([N+](=O)[O-])cc(CC)c1N | 5.8 µM [rising, full curve, poor fit] | 
27 | O=C(Nc1ccccc1)c1ccc(CSc2ncccn2)cc1 | 11.2 µM [falling, partial curve] | 
28 | COc1ccc(NC(=O)CCC(=O)c2cccs2)cc1Cl | 8.91 µM [rising, partial curve] | 
29 | COCc1nnc(NC(=O)c2sc3ccccc3c2Cl)s1 | 20 µM [falling, single point] | 
30 | CCc1ccc(C2=CC(c3c(F)cccc3Cl)n3c(nc4ccccc43)N2)cc1 (stereo not drawn) | 12.6 µM [falling, partial curve] | 
31 | COC(=O)C1=C(C(=O)OC)[C@@H]2N(C)c3ccc(OC)cc3[C@@]23C[C@@H](C(=O)OC)N(C(=O)C2CCC2)C3=N1 | 11.2 µM [rising, partial curve, poor fit] | 
